Structures can show the parent of a compound that is named as a salt. Some of the results follow. The calls rarely recur for the same compound in another form.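 Kinases were expressed as nanoluciferase fusions in K562 cells and luminescence was read every 4 h between 2 and 18 h as percent of control, DMSO set to 100% and a positive control to 0%. A time point counts as decreased when the signal drops significantly (2 sigma). The hit call is the authors' own, does not follow from the count of time points alone, and its rule is not shown.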
target: ARAF (UniProt P10398); assay: number of time points (of 5) at which kinase-Nluc abundance scored as decreased, DMSO-normalised (count); higher = more persistent destabilization; details: K562; 2-18 h

Amino acid sequences for entries named in this document (tags omitted). A change or cut given only in a name is not applied to a line headed by its entry.
UniProt P10398: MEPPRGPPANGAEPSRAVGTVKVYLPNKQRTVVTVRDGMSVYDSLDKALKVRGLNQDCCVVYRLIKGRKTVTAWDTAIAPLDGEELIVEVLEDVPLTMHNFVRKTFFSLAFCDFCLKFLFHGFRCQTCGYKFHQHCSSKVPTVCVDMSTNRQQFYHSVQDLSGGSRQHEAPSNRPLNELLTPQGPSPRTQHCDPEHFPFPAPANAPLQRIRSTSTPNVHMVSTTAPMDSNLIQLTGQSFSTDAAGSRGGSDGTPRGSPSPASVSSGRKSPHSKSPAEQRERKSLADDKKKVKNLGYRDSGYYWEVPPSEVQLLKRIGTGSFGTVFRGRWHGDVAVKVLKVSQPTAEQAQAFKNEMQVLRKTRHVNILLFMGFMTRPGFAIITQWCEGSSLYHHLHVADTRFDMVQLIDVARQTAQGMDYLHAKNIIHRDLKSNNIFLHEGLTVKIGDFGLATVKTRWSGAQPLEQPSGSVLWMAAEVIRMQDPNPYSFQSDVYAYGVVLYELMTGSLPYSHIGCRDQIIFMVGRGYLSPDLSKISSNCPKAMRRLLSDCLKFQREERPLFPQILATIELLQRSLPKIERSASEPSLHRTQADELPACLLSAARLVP

SMILES	number of time points
N#Cc1cnc2c(Cl)cc(NCc3cn(CCN4CCCCCC4)nn3)cc2c1Nc1ccc(F)c(Cl)c1 [Cot inhibitor-1] (10 µM)	0
Cc1cc(Nc2cc(N)ncn2)c(=O)n2c1C(=O)NC21CCCCC1 [Tomivosertib] (10 µM)	0
CC(Cc1ccc(O)c(O)c1)C(C)Cc1ccc(O)c(O)c1 (stereo not drawn) [Nordihydroguaiaretic acid] (2.5 µM)	0
CNC(=O)c1ccc2c(C(=Nc3cccc(CN(C)C)c3)c3ccccc3)c(O)[nH]c2c1 [MEK inhibitor] (10 µM)	0
COC(=O)[C@H](CCSC)NC(=O)c1ccc(NC[C@@H](N)CS)cc1-c1ccccc1 [FTI-277 (hydrochloride)] (10 µM)	0
C=CC(=O)Nc1ccc(C(=O)Nc2[nH]nc3c2CN(C(=O)N[C@H](CN(C)C)c2ccccc2)C3(C)C)cc1 (10 µM)	0
CCN(CC)CCCC(C)Nc1nc(C)cc(Nc2ccc3nc(C)cc(N)c3c2)n1 (stereo not drawn) (10 µM)	0
COc1cc(F)ccc1-c1ncnc(Nc2cccc(C[S@](C)(=N)=O)c2)n1 [Atuveciclib] (2.5 µM)	0
O=C(c1cccc(Cl)c1F)N1CCN(Cc2cccc(Nc3nccs3)n2)CC1 (2.5 µM)	0
N#Cc1ccc(-c2cnc3ccc(-c4ccc(C(=O)N5CCOCC5)cc4)cn23)cc1 (10 µM)	0
Cc1ccc(C(=O)NC2CC2)cc1-n1ncc(C(=O)c2cccc(C#N)c2)c1N [Acumapimod] (10 µM)	0
N#Cc1ccc(-c2cnc3[nH]cc(NC(=O)c4cccnc4)c3c2)cc1 (10 µM)	0
CC1(N)CCN(c2cccnc2NC(=O)c2nc(-c3ncccc3C(F)(F)F)cnc2N)CC1 [Darovasertib] (10 µM)	0
COc1cc(N2CCC(N3CCN(C)CC3)CC2)ccc1Nc1ncc(Cl)c(-c2c[nH]c3ccccc23)n1 (2.5 µM)	0
CN1CCN(c2ccc(Nc3ncc4cc(C#N)c(=O)n(C5CCCC5)c4n3)cc2)CC1 (10 µM)	0
CO[C@H]1CC[C@H](N2C(=O)CNc3ncc(-c4ccc(C(C)(C)O)nc4)nc32)CC1 (2.5 µM)	0
Cc1c(C(=O)Nc2ccc(Oc3ccnc4[nH]cc(-c5ccccc5)c34)c(F)c2)c(=O)n(-c2ccc(F)cc2)n1C (10 µM)	0
COc1ccc(Nc2ncc(C(F)(F)F)c(NC3CC3)n2)cc1OC (10 µM)	0
C[C@@H]1O[C@@H](Oc2cc(O)c3c(=O)c(O[C@@H]4O[C@@H](C)[C@H](O)[C@@H](O)[C@H]4O)c(-c4ccc(O)cc4)oc3c2)[C@H](O)[C@H](O)[C@H]1O [Kaempferitrin] (10 µM)	0

SMILES	number of time points
COC(=O)Nc1ccc(-c2nc(N3CCOCC3)c3cnn(C4CCN(Cc5cccnc5)CC4)c3n2)cc1 (10 µM)	0
CC(C)Oc1ccc(F)c(-c2cnc(N)c(C(=O)Nc3cnccc3N3CCC[C@@H](C(=O)O)C3)n2)c1 (2 µM)	0
O=Nc1c(-c2c(O)[nH]c3cc(Br)ccc23)[nH]c2ccccc12 [GSK 3 Inhibitor IX] (2.5 µM)	0
NCC1CCC(CNc2nc(NCc3ccccc3OC(F)(F)F)ncc2[N+](=O)[O-])CC1 (stereo not drawn) [PKC-theta inhibitor] (10 µM)	0
N[C@@H]1CCCN(c2c(/C=C3\SC(=O)NC3=O)cccc2-c2ccccc2)C1 (10 µM)	0
CCn1c(-c2nonc2N)nc2c(C#CC(C)(C)O)ncc(OC[C@H]3CCCNC3)c21 (10 µM)	0
CNC(=O)c1cc2c(Oc3ccc(NC(=O)C4(C(=O)Nc5ccc(F)cc5)CC4)cc3)ccnc2cc1OC (2.5 µM)	0
C=CC(=O)N1CC[C@@H](Oc2nc(Nc3ccc(N4CCC(N5CCN(C)CC5)CC4)cc3)c(C(N)=O)nc2CC)C1 [Naquotinib (mesylate)] (2.5 µM)	0
C=CC(=O)Nc1cc(Nc2nccc(-c3cn(C)c4ccccc34)n2)c(OC)cc1OCCN(C)C [Rezivertinib] (2.5 µM)	0
Oc1c(F)cc(-c2cnccc2-c2ccc(N3CCOCC3)cc2)cc1F (10 µM)	0
Brc1ccc(CSc2nc3ccccc3o2)cc1 [BMP signaling agonist sb4] (10 µM)	0
O=C1OC(/C=C/c2ccccc2)=NC/1=C\c1cccnc1 (10 µM)	0
O=C(NCCN1CCOCC1)Nc1nc2ccc(Sc3nnc4ccc(-c5ccc(F)cc5)nn34)cc2s1 (10 µM)	0
Cn1c(CNc2cccc(C(=O)NCc3ccccc3C(F)(F)F)c2)nnc1-c1ccncc1 (10 µM)	0
COc1cc2cc(Oc3ccc4ccc(=O)oc4c3)c(=O)oc2cc1O [Daphnoretin] (10 µM)	0
O=C(O)c1cc(N(Cc2ccccc2O)Cc2cc(O)ccc2O)ccc1O [Lavendustin A] (10 µM)	0
Cc1c(Cl)cccc1S(=O)(=O)Nc1nc(NCCc2ccccc2)nc2c1CN(Cc1ccccc1)CC2 (2.5 µM)	0
CO[C@H]1C[C@@H]2CC[C@@H](C)[C@@](O)(O2)C(=O)C(=O)N2CCCC[C@H]2C(=O)O[C@H]([C@H](C)C[C@@H]2CC[C@@H](OC(=O)C(C)(CO)CO)[C@H](OC)C2)CC(=O)[C@H](C)/C=C(\C)[C@@H](O)[C@@H](OC)C(=O)[C@H](C)C[C@H](C)/C=C/C=C/C=C/1C [Temsirolimus] (2.5 µM)	0
O=C1Nc2ccc(CN3C(=O)CSC3=O)cc2/C1=C/c1cc(CN2CCOCC2)c[nH]1 (10 µM)	0

Copied from the list:
For number of time points, `O=Nc1c(-c2c(O)[nH]c3cc(Br)ccc23)[nH]c2ccccc12` [GSK 3 Inhibitor IX] (2.5 µM) reads 0
For number of time points, `CN1CCN(c2ccc(Nc3ncc4cc(C#N)c(=O)n(C5CCCC5)c4n3)cc2)CC1` (10 µM) reads 0
For number of time points, `Cc1c(C(=O)Nc2ccc(Oc3ccnc4[nH]cc(-c5ccccc5)c34)c(F)c2)c(=O)n(-c2ccc(F)cc2)n1C` (10 µM) reads 0

From the supplement of paper PMC12823440, “Inhibitors supercharge kinase turnover through native proteolytic circuits” (Nature, 2025)
